Experimental data: publication PMC12071843

Amino acid sequences for entries named in this document (tags omitted). A change or cut given only in a name is not applied to a line headed by its entry.
UniProt P08254: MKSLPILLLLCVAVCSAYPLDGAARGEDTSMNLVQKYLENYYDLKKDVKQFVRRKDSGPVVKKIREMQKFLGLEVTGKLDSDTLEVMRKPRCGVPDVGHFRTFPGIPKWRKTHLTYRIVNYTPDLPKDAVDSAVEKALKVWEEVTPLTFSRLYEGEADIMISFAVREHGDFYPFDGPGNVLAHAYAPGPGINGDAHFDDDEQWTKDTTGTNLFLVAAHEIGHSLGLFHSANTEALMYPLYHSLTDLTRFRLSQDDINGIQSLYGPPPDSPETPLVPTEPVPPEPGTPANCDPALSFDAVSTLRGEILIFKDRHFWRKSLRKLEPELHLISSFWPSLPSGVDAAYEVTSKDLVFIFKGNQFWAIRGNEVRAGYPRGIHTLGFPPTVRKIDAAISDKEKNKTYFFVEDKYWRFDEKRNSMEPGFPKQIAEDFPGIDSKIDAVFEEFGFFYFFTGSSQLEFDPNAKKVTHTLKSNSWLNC

Biological target: Matrix metalloproteinase 3 (human (endogenous in OVCAR3CIS)) (UniProt P08254)
Experiment: affinity purification with mass spectrometry; extracellular MMP3: supernatants of serum-free OVCAR3CIS cells, untreated or cisplatin-treated, pre-cleared on protein A/G magnetic beads, anti-MMP3 antibody (Abcam) 10 ug/200 ug protein at 4 °C overnight, protein A/G magnetic beads (Pierce MS-compatible Magnetic IP Kit), eluate by LC-MS/MS

binding	Binder
binds	Complement C1r subcomponent (protein, UniProt P00736 18-705) SIPIPQKLFGEVTSPLFPKPYPNNFETTTVITVPTGYRVKLVFQQFDLEPSEGCFYDYVKISADKKSLGRFCGQLGSPLGNPPGKKEFMSQGNKMLLTFHTDFSNEENGTIMFYKGFLAYYQAVDLDECASRSKSGEEDPQPQCQHLCHNYVGGYFCSCRPGYELQEDTHSCQAECSSELYTEASGYISSLEYPRSYPPDLRCNYSIRVERGLTLHLKFLEPFDIDDHQQVHCPYDQLQIYANGKNIGEFCGKQRPPDLDTSSNAVDLLFFTDESGDSRGWKLRYTTEIIKCPQPKTLDEFTIIQNLQPQYQFRDYFIATCKQGYQLIEGNQVLHSFTAVCQDDGTWHRAMPRCKIKDCGQPRNLPNGDFRYTTTMGVNTYKARIQYYCHEPYYKMQTRAGSRESEQGVYTCTAQGIWKNEQKGEKIPRCLPVCGKPVNPVEQRQRIIGGQKAKMGNFPWQVFTNIHGRGGGALLGDRWILTAAHTLYPKEHEAQSNASLDVFLGHTNVEELMKLGNHPIRRVSVHPDYRQDESYNFEGDIALLELENSVTLGPNLLPICLPDNDTFYDLGLMGYVSGFGVMEEKIAHDLRFVRLPVANPQACENWLRGKNRMDVFSQNMFCAGHPSLKQDACQGDSGGVFAVRDPNTDRWVATGIVSWGIGCSRGYGFYTKVLNYVDWIKKEMEEED
binds	AF4/FMR2 family member 1 (protein, UniProt P51825 1-1210) MAAQSSLYNDDRNLLRIREKERRNQEAHQEKEAFPEKIPLFGEPYKTAKGDELSSRIQNMLGNYEEVKEFLSTKSHTHRLDASENRLGKPKYPLIPDKGSSIPSSSFHTSVHHQSIHTPASGPLSVGNISHNPKMAQPRTEPMPSLHAKSCGPPDSQHLTQDRLGQEGFGSSHHKKGDRRADGDHCASVTDSAPERELSPLISLPSPVPPLSPIHSNQQTLPRTQGSSKVHGSSNNSKGYCPAKSPKDLAVKVHDKETPQDSLVAPAQPPSQTFPPPSLPSKSVAMQQKPTAYVRPMDGQDQAPSESPELKPLPEDYRQQTFEKTDLKVPAKAKLTKLKMPSQSVEQTYSNEVHCVEEILKEMTHSWPPPLTAIHTPSTAEPSKFPFPTKDSQHVSSVTQNQKQYDTSSKTHSNSQQGTSSMLEDDLQLSDSEDSDSEQTPEKPPSSSAPPSAPQSLPEPVASAHSSSAESESTSDSDSSSDSESESSSSDSEENEPLETPAPEPEPPTTNKWQLDNWLTKVSQPAAPPEGPRSTEPPRRHPESKGSSDSATSQEHSESKDPPPKSSSKAPRAPPEAPHPGKRSCQKSPAQQEPPQRQTVGTKQPKKPVKASARAGSRTSLQGEREPGLLPYGSRDQTSKDKPKVKTKGRPRAAASNEPKPAVPPSSEKKKHKSSLPAPSKALSGPEPAKDNVEDRTPEHFALVPLTESQGPPHSGSGSRTSGCRQAVVVQEDSRKDRLPLPLRDTKLLSPLRDTPPPQSLMVKITLDLLSRIPQPPGKGSRQRKAEDKQPPAGKKHSSEKRSSDSSSKLAKKRKGEAERDCDNKKIRLEKEIKSQSSSSSSSHKESSKTKPSRPSSQSSKKEMLPPPPVSSSSQKPAKPALKRSRREADTCGQDPPKSASSTKSNHKDSSIPKQRRVEGKGSRSSSEHKGSSGDTANPFPVPSLPNGNSKPGKPQVKFDKQQADLHMREAKKMKQKAELMTDRVGKAFKYLEAVLSFIECGIATESESQSSKSAYSVYSETVDLIKFIMSLKSFSDATAPTQEKIFAVLCMRCQSILNMAMFRCKKDIAIKYSRTLNKHFESSSKVAQAPSPCIASTGTPSPLSPMPSPASSVGSQSSAGSVGSSGVAATISTPVTIQNMTSSYVTITSHVLTAFDLWEQAEALTRKNKEFFARLSTNVCTLALNSSLVDLVHYTRQGFQQLQELTKTP
binds	Coiled-coil domain-containing protein 25 (protein, UniProt Q86WR0 1-208) MVFYFTSSSVNSSAYTIYMGKDKYENEDLIKHGWPEDIWFHVDKLSSAHVYLRLHKGENIEDIPKEVLMDCAHLVKANSIQGCKMNNVNVVYTPWSNLKKTADMDVGQIGFHRQKDVKIVTVEKKVNEILNRLEKTKVERFPDLAAEKECRDREERNEKKAQIQEMKKREKEEMKKKREMDELRSYSSLMKVENMSSNQDGNDSDEFM

No constants are given. Whether binding was seen depends on the method and setting. Binding seen in cells or lysates may run through a third protein. Here binding means that the protein was enriched with, or labelled near, the bait; the list need not be complete.
